“Also recorded” adds a separate entry of the source. At least one compound was matched to its structure with a doubt left.
Columns and labels:
[1] = tested on: A. baumannii BAA-1709; assay: Killing kinetics (CFU counting) under combination treatments; type: cell-based, Acinetobacter baumannii; settings: rifampicin 0.008 μg/mL alone; up to 24 h
From the text: To compare the efficiency of an antimicrobial polymer/rifampicin combination and an antimicrobial polymer/polymyxin combination, the CFU of A. baumannii BAA-1709 under different combination treatments were studied. […] The results of CFU counting are presented as mean±standard deviation of triplicate samples.

[2] = tested on: P. aeruginosa; assay: Checkerboard / broth microdilution MIC; type: cell-based, Pseudomonas aeruginosa

Row | SMILES | Bactericidal activity of rifampicin mono-treatment (CFU over time) [1] | Effect of example polycarbonate 200 on antibiotic potency [2]
1 | CO[C@H]1/C=C/O[C@@]2(C)Oc3c(C)c(O)c4c(O)c(c(/C=N/N5CCN(C)CC5)c(O)c4c3C2=O)NC(=O)/C(C)=C\C=C\[C@H](C)[C@H](O)[C@@H](C)[C@@H](O)[C@@H](C)[C@H](OC(C)=O)[C@@H]1C [rifampicin] | no bactericidal activity over 24 h; also recorded: no bactericidal effect up to 24 hours | –
2 | CN(C)[C@@H]1C(O)=C(C(N)=O)C(=O)[C@@]2(O)C(O)=C3C(=O)c4c(O)cccc4[C@@](C)(O)[C@H]3C[C@@H]12 [tetracycline] | – | enhance the potency

Source: patent US11766451B2, “Utilizing polymers and antibiotics to enhance antimicrobial activity and inhibit antibiotic resistance” (International Business Machines Corporation, priority 2018, dated 2023)
